# Out of some 320,000 compounds screened, about 2,100 (0.66%) were called active. The inconclusive results got no clear call from the source; some entries with a clear call stand among them for comparison. The call rests on the fitted dose curve; in most records, active means well fitted inhibition curve with a large enough effect in the signal ratio, with a control signal flat (not every such curve was filed as active); inconclusive means small, poorly fitted or top-dose-only effect, or effect the other way, or a change in a side signal; inactive means flat fitted curve, though single readings scatter; the % refers to the signal ratio. Where the call is inconclusive, the potency comes from a doubtful curve fit.
# Experiment: qHTS Assay for Lipid Storage Modulators in Drosophila S3 Cells
# Conditions: BODIPY lipid droplet fluorescence, 18-24 h, cells fed with added oleic acid; lipid storage change, negative = inhibition: at 46.1 µM (top of the series) unless noted
# Summary of the method: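 Drosophila S3 cells loaded with oleic acid (400 uM, as added) and compounds at several concentrations; lipid droplets imaged by 488-nm laser-scanning cytometry, 500–530 nm intensity and object ratio to cell channel. Percent activity normalized to 20 uM Triacsin C.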
# On the % scale 0 is the no-effect control and ±100 the full control effect; potency means the concentration at half of the fitted maximal effect.
Compound,"lipid storage change, negative = inhibition",Potency
Cc1ccc(OCC(=O)NNC(=S)NC(=O)C2CCCCC2)c(C)c1,inconclusive: 94.4%,
CCc1nnc(NC(=O)c2ccc(S(=O)(=O)N3CCCCC3C)cc2)s1 (configuration not stated),,"inconclusive: 4.11 µM [activator, single point]"
CS(=O)(=O)N1CCC(C(=O)O)CC1,inconclusive: -0.103%,
O=C(CSc1ccc(Cl)cc1)N1CCN(c2ccc([N+](=O)[O-])cc2Cl)CC1,inconclusive: -7.74%,
Cc1ccc(OCC(O)CN2C(=O)NC(C)(C)C2=O)cc1C (configuration not stated),inconclusive: 3.32%,
CCn1c(SCC(=O)NNC(=O)Cc2ccccc2)nnc1-c1ccncc1,,"inconclusive: 1.64 µM [falling, partial curve, poor fit]"
S=C1CCSc2ccc(Cl)cc2N1,inconclusive: 9.82%,
Cc1ccccc1Cn1c(CN2CCN(c3ccc(F)cc3)CC2)nc2c1c(=O)n(C)c(=O)n2C,inconclusive: 6.5%,
COc1ccc(C(=O)CCC(=O)Nc2cccnc2)c(OC)c1,,"inconclusive: 25.9 µM [activator, single point]"
O=C(Nc1ccccc1)Nc1csc2ccccc12,inconclusive: -25.8%,
C=CCn1c(SCC(=O)Nc2sccc2C(N)=O)nc2ccccc2c1=O,inconclusive: 204%,
COC(=O)c1cccc(NC(=S)NCCC2=CCCCC2)c1,inconclusive: -2.06%,
CC(/C=C/c1ccccc1)=N\Nc1nc2c(c(=O)[nH]c(=O)n2C)n1CCO,,"inconclusive: 0.0366 µM [activator, full curve, poor fit]"
COC(=O)C1=C(C)N(C)C(C)=C(C(=O)OC)C1c1ccncc1,,"inconclusive: 29.1 µM [activator, single point]"
O=C(COc1ccc(Br)cc1Cl)NCCCN1CCOCC1,inconclusive: 31.3%,
CCOc1ccc(S(=O)(=O)NCCC(=O)N2CCCC(C)C2)cc1 (configuration not stated),inconclusive: 12.2%,
OCCN(CCCn1c(-c2ccncc2)nc2ccccc21)c1nc(CN2CCCCC2)cs1,,"inconclusive: 3.26 µM [falling, full curve]"
CSc1cccc(NS(=O)(=O)c2ccc(C(C)=O)cc2)c1,inconclusive: -9.25%,
CCN(CC)C(=O)c1[nH]cnc1C(=O)Nc1ccc(C)cc1,inconclusive: 20.2%,
CCOC(=O)/C(C#N)=C1/C=Cc2ccccc2N1CC,inconclusive: 49.3%,
CCOC(=O)c1cc(-c2ccccc2)sc1NC(=O)CN1C(=O)NC(CC)(c2ccccc2)C1=O (configuration not stated),,"inconclusive: 2.91 µM [rising, partial curve]"
O=C(CSc1nnc2ccccn12)Nc1ccccc1C(=O)NC1CC1,inconclusive: 3.66%,
CCOC(=O)c1sc2nc3c(SCCC(=O)O)cc(C(=O)c4cc(OC)ccc4O)cn3c(=O)c2c1C,inconclusive: 40.5%,
CCN1CCN(CC(=O)N2N=C(c3cccs3)CC2c2ccc(C)cc2)C(=O)C1=O (configuration not stated),,"inconclusive: 0.0046 µM [cytotoxic, full curve, poor fit]"

Compound,"lipid storage change, negative = inhibition",Potency
CC(C)N(C(=O)NC(=O)Nc1ccc(S(=O)(=O)N2CCCC2)cc1)S(C)(=O)=O,inconclusive: -31.3%,
CCn1c(SCC(=O)Nc2nccs2)nnc1C1CC1,,"inconclusive: 0.13 µM [activator, full curve]"
CCn1cc(C(=O)NCCc2ccccc2)c(=O)c2cc(S(=O)(=O)N(C)C)ccc21,,"inconclusive: 1.03 µM [falling, partial curve]"
Cc1ccccc1NC(=O)CSc1n[nH]c(-c2ccccn2)n1,inconclusive: -51%,
COc1ccc(NC(=O)c2ccc3c(c2)n(C)c(=O)n3C)cc1,inactive,
CCc1ccc(CNC(=O)C2CC(=O)N(CCc3ccc(C)cc3)C2)cc1 (configuration not stated),,"inconclusive: 11.6 µM [rising, partial curve, poor fit]"
CCOc1cccc2sc(N(CCN(CC)CC)C(=O)c3ccc(S(=O)(=O)N4CCCCC4)cc3)nc12,inconclusive: -17.3%,
CC(=O)OCCCN1C(=O)c2cccc3cc(Br)cc(c23)C1=O,,"inconclusive: 20.6 µM [falling, single point]"
CC(Oc1ccc(Cl)cc1Cl)/C(N)=N/O (configuration not stated),,"inconclusive: 0.0065 µM [falling, full curve, poor fit]"
COC(=O)CSc1nnc2c3c4c(sc3nc(-n3nc(C)cc3C)n12)COC(C)(C)C4,inconclusive: -30.7%,
COC(=O)c1ccc(NC(=O)C(=O)c2c[nH]c3ccccc23)cc1,inconclusive: 17.7%,
Cc1cccc(OCC(=O)NNC(=O)c2ccc3nc[nH]c3c2)c1,,"inconclusive: 29.1 µM [activator, single point]"
O=C1CS/C(=C/C(=O)c2cccc(Cl)c2)N1,,"inconclusive: 2.31 µM [rising, partial curve]"
O=C(Cc1csc(-c2ccc(F)cc2)n1)Nc1cccc(S(=O)(=O)NC2=NCCC2)c1,inconclusive: 23.5%,
CCN(CC)c1cc(C)c2cc(NC(=O)c3ccccc3F)ccc2n1,inconclusive: 156%,
CCOC(=O)Nc1nnc(-c2cccc(OC)c2)s1,,"inconclusive: 29.1 µM [rising, single point]"
COc1ccccc1N1CCN(C(=O)NC23CC4CC(CC(C4)C2)C3)CC1,inconclusive: 19.1%,
Cc1oc(-c2ccc(Cl)cc2)nc1CN1CCC(C(=O)NCCCN2CCCC(C)C2)CC1 (configuration not stated),,"inconclusive: 3.26 µM [activator, partial curve, poor fit]"
CCCCC(=O)NCc1ccccc1Cl,inconclusive: -60.2%,
O=C(Nc1nnc(CCc2ccccc2)s1)c1cccs1,inconclusive: 63.5%,
C=CCN1C(=O)c2ccc(C(=O)N(C)CC(=O)Nc3ccccc3C(F)(F)F)cc2C1=O,,"inconclusive: 29.1 µM [falling, single point]"
C=C(C)COc1ccc(-c2ncncc2-c2ccccc2)c(O)c1,,"inconclusive: 0.731 µM [falling, full curve, poor fit]"
CCN1CCN(c2ccc(S(=O)(=O)N3CCCCC3)cc2NC(=O)Cc2ccc(Cl)c(Cl)c2)CC1,inconclusive,

# Given bar-delimited: entries from further up.
Compound | lipid storage change, negative = inhibition | Potency
CCn1cc(C(=O)NCCc2ccccc2)c(=O)c2cc(S(=O)(=O)N(C)C)ccc21 |  | inconclusive: 1.03 µM [falling, partial curve]
Cc1ccccc1NC(=O)CSc1n[nH]c(-c2ccccn2)n1 | inconclusive: -51% | 
